Test results published in the supplement of paper PMC11732987, “Enantioselective OTUD7B fragment discovery through chemoproteomics screening and high-throughput optimisation” (Communications Chemistry, 2025).
The list shows a part of the results. The data scatter; read single values as rough.

By UniProt entry, the sequences of proteins in these tests, tags left out. Where a name states a change or a piece, a line headed by the entry shows the natural chain unless it says otherwise. Residues count along the entry.
UniProt P27815: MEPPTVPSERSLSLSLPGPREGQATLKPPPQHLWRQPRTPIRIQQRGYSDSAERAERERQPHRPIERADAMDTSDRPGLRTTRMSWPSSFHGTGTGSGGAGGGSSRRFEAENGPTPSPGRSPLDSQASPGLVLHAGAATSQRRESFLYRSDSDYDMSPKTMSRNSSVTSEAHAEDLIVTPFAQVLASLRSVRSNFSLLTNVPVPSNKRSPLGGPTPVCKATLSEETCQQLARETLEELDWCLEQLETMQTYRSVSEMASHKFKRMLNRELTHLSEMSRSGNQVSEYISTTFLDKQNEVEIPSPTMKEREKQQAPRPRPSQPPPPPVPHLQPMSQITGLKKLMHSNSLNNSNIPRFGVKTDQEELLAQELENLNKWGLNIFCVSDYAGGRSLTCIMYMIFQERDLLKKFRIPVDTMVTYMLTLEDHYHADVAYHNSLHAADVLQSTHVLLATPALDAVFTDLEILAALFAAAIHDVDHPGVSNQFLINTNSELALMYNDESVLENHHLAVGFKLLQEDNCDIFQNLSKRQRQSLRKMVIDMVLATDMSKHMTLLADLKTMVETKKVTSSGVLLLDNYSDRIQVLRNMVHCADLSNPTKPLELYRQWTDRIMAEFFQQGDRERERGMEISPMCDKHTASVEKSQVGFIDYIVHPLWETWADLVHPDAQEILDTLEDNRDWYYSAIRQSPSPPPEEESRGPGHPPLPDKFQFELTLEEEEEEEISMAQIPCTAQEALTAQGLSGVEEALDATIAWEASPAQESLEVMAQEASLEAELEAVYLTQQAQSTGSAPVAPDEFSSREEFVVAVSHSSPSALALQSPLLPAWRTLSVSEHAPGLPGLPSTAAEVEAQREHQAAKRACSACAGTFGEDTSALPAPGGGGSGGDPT
UniProt O15067, 508-527: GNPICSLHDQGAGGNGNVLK
UniProt Q01813: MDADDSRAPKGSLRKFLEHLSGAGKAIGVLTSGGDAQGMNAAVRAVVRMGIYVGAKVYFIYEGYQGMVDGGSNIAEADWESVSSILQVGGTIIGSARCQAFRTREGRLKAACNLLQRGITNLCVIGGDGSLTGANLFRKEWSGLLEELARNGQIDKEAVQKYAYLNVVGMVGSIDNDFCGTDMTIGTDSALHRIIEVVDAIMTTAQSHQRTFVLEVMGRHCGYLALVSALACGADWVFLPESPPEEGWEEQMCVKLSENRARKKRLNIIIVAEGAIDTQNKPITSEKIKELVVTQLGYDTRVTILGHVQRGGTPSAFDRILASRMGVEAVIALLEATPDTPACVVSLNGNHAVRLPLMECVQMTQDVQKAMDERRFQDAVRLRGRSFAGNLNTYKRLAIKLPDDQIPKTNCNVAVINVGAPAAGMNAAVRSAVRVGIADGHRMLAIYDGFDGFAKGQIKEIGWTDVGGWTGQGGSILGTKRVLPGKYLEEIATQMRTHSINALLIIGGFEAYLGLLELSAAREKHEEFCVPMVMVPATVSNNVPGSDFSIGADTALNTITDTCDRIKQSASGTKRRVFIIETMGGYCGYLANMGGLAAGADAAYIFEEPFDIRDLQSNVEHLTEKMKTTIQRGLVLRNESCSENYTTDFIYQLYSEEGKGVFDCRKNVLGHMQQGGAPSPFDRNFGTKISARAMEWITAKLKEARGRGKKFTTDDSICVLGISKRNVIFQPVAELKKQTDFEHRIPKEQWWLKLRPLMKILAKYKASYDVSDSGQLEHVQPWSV
UniProt Q8N573: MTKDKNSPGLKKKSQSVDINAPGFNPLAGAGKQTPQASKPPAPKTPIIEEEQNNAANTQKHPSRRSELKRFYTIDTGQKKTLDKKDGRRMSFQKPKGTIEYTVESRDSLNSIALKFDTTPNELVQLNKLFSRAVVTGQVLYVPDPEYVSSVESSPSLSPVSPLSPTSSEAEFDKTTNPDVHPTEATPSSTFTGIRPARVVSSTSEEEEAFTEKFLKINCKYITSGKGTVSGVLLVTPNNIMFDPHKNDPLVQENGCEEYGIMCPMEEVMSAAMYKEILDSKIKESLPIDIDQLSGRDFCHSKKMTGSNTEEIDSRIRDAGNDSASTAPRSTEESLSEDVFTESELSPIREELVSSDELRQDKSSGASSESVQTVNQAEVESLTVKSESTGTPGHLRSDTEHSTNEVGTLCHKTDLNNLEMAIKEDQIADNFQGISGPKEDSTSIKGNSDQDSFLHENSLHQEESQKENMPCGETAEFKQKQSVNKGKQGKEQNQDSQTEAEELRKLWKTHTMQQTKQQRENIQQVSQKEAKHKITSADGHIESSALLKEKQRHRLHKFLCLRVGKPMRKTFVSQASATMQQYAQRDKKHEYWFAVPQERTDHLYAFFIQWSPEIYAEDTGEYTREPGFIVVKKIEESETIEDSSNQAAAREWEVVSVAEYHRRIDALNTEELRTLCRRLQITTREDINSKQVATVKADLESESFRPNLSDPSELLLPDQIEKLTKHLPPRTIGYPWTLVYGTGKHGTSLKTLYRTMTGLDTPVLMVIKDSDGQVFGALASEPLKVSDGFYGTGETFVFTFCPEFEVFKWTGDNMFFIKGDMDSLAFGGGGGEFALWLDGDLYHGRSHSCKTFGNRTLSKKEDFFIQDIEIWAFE
UniProt Q14690: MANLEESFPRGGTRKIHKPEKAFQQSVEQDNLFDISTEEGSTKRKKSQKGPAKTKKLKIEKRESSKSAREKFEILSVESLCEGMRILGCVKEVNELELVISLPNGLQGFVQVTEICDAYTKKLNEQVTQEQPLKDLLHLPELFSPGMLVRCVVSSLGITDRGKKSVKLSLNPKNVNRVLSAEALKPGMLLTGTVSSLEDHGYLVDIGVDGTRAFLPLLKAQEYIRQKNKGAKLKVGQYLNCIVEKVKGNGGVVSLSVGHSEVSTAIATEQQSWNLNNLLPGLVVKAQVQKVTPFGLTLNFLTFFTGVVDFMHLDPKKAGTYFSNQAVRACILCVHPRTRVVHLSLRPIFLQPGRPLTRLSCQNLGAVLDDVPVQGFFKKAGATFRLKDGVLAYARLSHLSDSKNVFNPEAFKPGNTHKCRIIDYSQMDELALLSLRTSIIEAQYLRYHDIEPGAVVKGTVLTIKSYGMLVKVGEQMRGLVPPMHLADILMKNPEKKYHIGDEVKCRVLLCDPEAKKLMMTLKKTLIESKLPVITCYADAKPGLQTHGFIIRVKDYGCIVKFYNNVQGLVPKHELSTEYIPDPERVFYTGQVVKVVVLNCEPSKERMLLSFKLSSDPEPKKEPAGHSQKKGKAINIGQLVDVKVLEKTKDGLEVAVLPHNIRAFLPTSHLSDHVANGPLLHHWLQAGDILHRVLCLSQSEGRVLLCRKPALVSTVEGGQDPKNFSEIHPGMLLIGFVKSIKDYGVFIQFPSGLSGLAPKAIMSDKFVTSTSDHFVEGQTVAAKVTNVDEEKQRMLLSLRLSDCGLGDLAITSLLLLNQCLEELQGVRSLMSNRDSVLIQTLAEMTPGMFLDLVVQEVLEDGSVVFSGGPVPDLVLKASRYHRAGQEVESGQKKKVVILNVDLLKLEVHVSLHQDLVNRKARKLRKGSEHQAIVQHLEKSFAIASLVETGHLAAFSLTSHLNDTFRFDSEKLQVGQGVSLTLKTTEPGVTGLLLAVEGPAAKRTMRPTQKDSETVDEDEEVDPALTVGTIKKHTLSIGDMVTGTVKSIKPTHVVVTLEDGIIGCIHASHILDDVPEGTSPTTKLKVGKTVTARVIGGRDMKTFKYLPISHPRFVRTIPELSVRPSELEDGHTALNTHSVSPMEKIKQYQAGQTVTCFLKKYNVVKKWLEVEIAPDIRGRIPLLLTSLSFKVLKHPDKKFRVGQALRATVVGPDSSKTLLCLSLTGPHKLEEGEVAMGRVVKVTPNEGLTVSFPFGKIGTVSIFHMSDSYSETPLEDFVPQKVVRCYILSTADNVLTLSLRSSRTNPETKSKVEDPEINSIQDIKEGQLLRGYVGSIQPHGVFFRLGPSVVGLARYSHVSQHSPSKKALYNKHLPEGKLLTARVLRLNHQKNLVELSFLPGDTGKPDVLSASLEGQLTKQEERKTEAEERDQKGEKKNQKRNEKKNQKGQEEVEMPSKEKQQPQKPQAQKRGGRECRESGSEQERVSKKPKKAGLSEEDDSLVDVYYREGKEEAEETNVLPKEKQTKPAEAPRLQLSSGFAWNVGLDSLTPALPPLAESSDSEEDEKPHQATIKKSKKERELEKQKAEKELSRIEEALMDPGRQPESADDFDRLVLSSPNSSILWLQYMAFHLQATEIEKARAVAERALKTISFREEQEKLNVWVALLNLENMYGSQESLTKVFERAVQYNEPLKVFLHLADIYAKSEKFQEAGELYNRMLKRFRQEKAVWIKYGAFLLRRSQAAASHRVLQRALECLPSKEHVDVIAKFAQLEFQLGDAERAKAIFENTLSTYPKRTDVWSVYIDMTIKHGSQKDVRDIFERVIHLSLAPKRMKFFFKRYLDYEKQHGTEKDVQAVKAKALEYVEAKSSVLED
UniProt Q8WUM4: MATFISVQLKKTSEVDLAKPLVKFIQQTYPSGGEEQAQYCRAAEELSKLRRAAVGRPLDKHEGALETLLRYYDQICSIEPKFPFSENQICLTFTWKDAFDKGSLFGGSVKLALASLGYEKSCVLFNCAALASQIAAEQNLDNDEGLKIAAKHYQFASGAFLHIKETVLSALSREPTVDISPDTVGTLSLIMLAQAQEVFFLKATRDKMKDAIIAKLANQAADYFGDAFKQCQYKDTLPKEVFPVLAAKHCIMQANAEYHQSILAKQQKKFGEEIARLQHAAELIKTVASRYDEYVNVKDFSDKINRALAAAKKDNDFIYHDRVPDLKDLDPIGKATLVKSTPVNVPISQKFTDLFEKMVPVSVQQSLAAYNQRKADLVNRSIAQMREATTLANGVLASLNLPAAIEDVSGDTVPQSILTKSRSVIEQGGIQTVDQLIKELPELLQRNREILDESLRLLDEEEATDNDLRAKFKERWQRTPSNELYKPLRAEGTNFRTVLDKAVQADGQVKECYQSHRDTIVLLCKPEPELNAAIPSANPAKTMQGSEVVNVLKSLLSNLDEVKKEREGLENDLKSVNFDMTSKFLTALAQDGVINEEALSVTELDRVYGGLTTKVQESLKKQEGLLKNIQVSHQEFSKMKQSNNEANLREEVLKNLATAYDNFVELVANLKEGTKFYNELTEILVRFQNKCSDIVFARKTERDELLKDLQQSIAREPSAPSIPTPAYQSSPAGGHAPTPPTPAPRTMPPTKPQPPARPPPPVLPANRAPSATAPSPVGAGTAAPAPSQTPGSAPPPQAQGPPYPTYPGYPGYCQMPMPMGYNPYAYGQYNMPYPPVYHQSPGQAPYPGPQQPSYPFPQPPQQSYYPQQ
UniProt O15534: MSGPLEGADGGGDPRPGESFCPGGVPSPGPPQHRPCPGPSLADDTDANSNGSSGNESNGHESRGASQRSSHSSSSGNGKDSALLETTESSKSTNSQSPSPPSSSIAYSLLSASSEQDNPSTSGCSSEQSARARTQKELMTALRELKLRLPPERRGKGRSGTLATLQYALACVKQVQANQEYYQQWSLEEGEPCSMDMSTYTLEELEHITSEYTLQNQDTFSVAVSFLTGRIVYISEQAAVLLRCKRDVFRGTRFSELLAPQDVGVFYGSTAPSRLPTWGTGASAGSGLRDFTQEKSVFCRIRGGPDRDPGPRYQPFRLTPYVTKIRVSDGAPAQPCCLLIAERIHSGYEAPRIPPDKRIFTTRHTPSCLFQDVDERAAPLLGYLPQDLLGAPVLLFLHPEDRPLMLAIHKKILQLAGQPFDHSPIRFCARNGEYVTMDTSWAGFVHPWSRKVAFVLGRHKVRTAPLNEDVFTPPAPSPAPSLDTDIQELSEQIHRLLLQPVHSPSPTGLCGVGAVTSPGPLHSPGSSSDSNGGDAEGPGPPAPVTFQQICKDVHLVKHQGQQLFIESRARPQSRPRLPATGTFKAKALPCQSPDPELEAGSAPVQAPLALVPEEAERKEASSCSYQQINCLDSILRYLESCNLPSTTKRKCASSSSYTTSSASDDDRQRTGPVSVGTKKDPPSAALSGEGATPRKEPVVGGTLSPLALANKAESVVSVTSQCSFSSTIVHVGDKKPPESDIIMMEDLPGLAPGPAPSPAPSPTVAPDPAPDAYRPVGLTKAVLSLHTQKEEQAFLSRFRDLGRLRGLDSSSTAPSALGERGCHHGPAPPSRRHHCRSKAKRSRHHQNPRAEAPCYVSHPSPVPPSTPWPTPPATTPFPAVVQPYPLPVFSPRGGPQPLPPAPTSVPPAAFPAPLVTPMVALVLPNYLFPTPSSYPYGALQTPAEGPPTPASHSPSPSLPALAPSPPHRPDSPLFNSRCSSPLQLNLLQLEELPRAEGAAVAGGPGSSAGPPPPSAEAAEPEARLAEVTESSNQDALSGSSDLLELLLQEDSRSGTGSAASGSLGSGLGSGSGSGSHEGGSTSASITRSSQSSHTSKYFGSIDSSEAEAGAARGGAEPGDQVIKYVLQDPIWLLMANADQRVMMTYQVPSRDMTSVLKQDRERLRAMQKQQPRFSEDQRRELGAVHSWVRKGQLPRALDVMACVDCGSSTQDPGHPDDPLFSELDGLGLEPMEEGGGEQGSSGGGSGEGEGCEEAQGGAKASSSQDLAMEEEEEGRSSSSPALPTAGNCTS

What follows are targets tested with ClCC(=O)N[C@H]1CCCc2ccccc12 (assay: log2 mean competition ratio of IA-DTB cysteine labelling (DMSO/compound) (log2 ratio); higher = stronger cysteine engagement by compound). Conditions: 200 µM; treatment time: 4 h; cell line lysate: HEK293T.
Description: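 IA-DTB competitive cysteine chemoproteomics in HEK293T RIPA lysate. Lysates were treated with compound 29 or 30 at 50 or 200 µM for 4 h, then IA-DTB (500 µM, 1 h), trypsin-digested, NeutrAvidin-enriched and analysed by diaPASEF. Competition ratio = intensity DMSO / intensity compound (n=4 treated, n=64 DMSO); binding: mean log2 CR ≥ 1 and p ≤ 0.05 plus QC filters. Target is the cysteine site.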

Target	log2 mean competition ratio
PDE4A C218 (UniProt P27815)	0.428
PGM2L1 C303 (UniProt Q6PCE3)	0.12
PFAS C512 (UniProt O15067)	0.107
PEX1 C1185 (UniProt O43933)	0.0491
PFKP C718 (UniProt Q01813)	-0.122
OXR1 C410 (UniProt Q8N573)	-0.311
PFAS C270 (UniProt O15067)	0.0432
PGM2 C484 (UniProt Q96G03)	-0.273
PDSS2 C365 (UniProt Q86YH6)	0.312
PDK2 C195 (UniProt Q15119)	-0.0513
PCK2 C151 (UniProt Q16822)	0.44
PDZD8 C667 (UniProt Q8NEN9)	0.0574
PDE7A C402	0.426
PDCD11 C1754 (UniProt Q14690)	-0.048
PC C622 (UniProt P11498)	0.125
PDCD6IP C40 (UniProt Q8WUM4)	0.633
PDCD7 C159 (UniProt Q8N8D1)	0.19
PDE4DIP C603	0.101
PCM1 C171 (UniProt Q15154)	0.279
PCNT C1225 (UniProt O95613)	-0.112
PFKFB3 C178 (UniProt Q16875)	-0.0725
PDXDC1 C135 (UniProt Q6P996)	-0.176
PDCD11 C557 (UniProt Q14690)	-0.246
OTUD4 C45 (UniProt Q01804)	1.65
PDE3B C35 (UniProt Q13370)	-0.051
PER1 C368 (UniProt O15534)	0.394
PEPD C467 (UniProt P12955)	-0.074

Reprinted at random: two entries already listed.
Target	log2 mean competition ratio
PDCD11 C557 (UniProt Q14690)	-0.246
PC C622 (UniProt P11498)	0.125
